In doi:10.1101/2021.12.20.473554:
No constants are given. Whether binding was seen depends on the method and setting. Binding seen in cells or lysates may run through a third protein. For some assays here: Binding calls can cover weak binding; strength is not graded here. Sequences can lack the tags named with a protein.

What was measured:
Flag-TSC22D4-ΔTSC = Flag-TSC22D4-ΔTSC (UniProt Q9EQN3); assay: co-IP
Flag-TSC22D4-ΔD2 = Flag-TSC22D4-ΔD2 (UniProt Q9EQN3); assay: co-IP

binding (Flag-TSC22D4-ΔTSC): no binding
binding (Flag-TSC22D4-ΔD2): binds
B1: full length myc-TSC22D4 (protein, UniProt Q9EQN3 1-387)
chain: MSGGKKKSSFQITSVTTDYEGPGSPGASDSPVPPALAGPPPRLPNGDPNPDPGGRGTPRNGSPPPGAPASRFRVVKLPQGLGEPYRRGRWTCVDVYERDLEPPSFGRLLEGIRGASGGTGGRSLDSRLELASLGISTPIPQPGLSQGPTSWLRPPPTSPGPQARSFTGGLGQLAGPGKAKVETPPLSASPPQQRPPGPGTGDSAQTLPSLRVEVESGGSAAATPPLSRRRDGAVRLRMELVAPAETGKVPPTDSRPNSPALYFDASLVHKSPDPFGAAAAQSLSLARSMLAISGHLDSDDDSGSGSLVGIDNKIEQAMDLVKSHLMFAVREEVEVLKEQIRDLAERNAALEQENGLLRALASPEQLAQLPSSGLPRLGPSAPNGPSI
